Compound in the experiment: Nc1nc2c(ncn2[C@@H]2O[C@H](COP(=O)(O)OP(=O)(O)OP(=O)(O)O)[C@@H](O)[C@H]2O)c(=O)[nH]1 [guanosine triphosphate]
The experiment is described as follows: NP40-soluble protein abundance relative to vehicle (solubility fold change) (ratio); higher = more soluble protein in presence of GTP. The method in brief: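 Jurkat crude lysate (Dounce-homogenised) was treated with eight concentrations from 0.1 to 10 mM for 10 min at room temperature, then 3 min at 37 °C. It was solubilised with 0.8% NP40 and benzonase (60 min, 4 °C) and ultracentrifuged, and the supernatant was TMT-labelled for LC-MS/MS. Intensities were vsn-normalised, and the value is the fold change against the NP40-processed vehicle per replicate, from three independent experiments.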

Chains of the proteins cited; added tags and fusions are not shown. Lines headed by an entry give the natural chain unless they say otherwise; changes in a name come on top.
UniProt Q5XPI4: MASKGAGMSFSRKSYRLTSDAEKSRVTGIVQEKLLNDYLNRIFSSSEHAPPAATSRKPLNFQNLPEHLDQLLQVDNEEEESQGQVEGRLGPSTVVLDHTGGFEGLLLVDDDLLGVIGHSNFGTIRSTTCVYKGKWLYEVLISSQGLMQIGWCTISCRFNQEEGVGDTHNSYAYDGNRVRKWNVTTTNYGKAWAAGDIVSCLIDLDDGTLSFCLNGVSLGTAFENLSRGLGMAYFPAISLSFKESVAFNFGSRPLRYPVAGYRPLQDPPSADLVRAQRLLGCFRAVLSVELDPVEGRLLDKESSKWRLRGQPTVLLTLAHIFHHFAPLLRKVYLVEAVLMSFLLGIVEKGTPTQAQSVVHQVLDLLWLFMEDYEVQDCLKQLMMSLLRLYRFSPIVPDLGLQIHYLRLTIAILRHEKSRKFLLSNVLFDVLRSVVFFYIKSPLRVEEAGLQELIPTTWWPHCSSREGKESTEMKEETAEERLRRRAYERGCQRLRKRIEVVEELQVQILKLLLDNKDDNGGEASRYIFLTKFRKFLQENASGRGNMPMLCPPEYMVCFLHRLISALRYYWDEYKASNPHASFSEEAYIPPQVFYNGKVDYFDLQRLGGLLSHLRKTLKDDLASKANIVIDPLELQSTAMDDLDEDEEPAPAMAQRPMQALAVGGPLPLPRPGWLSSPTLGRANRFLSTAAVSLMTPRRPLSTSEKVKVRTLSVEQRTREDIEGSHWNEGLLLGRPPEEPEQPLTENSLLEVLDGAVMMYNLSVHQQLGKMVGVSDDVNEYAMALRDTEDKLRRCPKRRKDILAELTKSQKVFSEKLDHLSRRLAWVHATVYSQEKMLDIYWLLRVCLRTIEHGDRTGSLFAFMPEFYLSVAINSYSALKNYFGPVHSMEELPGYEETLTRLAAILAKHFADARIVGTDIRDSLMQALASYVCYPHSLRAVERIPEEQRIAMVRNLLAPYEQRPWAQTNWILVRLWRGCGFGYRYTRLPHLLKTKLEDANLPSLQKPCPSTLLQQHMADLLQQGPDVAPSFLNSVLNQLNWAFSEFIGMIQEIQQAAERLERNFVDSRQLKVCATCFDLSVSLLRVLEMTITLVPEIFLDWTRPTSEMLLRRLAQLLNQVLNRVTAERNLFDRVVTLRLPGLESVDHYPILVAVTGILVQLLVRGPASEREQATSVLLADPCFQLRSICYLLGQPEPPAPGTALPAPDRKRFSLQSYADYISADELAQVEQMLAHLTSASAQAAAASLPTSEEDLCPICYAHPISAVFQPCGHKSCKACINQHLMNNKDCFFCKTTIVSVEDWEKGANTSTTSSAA
UniProt Q7L2J0: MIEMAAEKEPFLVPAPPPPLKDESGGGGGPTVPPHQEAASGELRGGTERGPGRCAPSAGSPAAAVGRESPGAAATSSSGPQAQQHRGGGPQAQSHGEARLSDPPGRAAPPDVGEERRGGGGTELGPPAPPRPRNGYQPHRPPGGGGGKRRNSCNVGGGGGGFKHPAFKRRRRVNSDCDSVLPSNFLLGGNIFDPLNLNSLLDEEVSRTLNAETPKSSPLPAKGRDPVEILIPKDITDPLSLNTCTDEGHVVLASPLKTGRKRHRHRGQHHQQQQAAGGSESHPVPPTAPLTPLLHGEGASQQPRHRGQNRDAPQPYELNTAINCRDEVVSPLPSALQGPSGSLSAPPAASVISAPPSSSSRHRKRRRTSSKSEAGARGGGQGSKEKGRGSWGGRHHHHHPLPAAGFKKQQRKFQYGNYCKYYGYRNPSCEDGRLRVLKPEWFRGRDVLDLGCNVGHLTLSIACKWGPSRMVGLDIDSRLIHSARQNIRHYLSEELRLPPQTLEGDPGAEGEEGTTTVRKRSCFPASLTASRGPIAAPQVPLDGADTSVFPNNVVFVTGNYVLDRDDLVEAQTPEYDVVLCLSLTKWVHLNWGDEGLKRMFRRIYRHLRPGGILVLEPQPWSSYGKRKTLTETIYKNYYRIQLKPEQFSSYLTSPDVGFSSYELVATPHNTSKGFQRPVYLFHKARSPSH
UniProt Q6P4F2: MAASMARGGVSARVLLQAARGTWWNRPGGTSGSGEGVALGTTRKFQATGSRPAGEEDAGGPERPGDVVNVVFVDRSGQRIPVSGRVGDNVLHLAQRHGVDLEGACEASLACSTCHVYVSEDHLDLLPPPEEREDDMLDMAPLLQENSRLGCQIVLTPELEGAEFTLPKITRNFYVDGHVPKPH
UniProt Q7Z392: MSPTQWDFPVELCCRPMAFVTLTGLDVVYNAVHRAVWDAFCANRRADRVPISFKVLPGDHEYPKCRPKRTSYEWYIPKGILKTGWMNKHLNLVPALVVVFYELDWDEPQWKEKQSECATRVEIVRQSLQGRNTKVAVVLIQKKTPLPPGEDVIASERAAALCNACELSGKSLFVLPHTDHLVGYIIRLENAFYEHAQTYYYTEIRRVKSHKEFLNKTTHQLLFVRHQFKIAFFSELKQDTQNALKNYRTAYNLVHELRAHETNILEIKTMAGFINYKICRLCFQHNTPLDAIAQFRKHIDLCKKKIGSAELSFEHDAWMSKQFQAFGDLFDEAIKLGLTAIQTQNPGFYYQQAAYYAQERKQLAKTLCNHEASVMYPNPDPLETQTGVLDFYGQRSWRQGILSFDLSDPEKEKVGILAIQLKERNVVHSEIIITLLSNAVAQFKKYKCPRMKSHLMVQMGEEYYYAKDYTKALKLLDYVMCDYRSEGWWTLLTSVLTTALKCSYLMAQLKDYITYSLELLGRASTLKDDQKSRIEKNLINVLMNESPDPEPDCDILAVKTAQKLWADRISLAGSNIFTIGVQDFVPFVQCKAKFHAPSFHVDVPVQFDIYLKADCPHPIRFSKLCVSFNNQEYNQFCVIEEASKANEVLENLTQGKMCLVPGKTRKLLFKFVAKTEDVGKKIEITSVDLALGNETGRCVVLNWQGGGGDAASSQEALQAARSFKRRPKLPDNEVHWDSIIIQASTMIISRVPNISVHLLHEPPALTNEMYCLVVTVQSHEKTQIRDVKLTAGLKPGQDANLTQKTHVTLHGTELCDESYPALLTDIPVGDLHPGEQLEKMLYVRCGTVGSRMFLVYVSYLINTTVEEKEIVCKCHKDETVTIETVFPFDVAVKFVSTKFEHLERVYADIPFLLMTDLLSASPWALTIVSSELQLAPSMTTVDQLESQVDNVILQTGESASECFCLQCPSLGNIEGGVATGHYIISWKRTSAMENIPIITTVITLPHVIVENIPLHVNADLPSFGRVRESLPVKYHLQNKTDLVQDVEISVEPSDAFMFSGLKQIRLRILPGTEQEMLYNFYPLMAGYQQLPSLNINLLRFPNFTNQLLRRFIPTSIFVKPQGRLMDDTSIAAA
UniProt Q7Z422: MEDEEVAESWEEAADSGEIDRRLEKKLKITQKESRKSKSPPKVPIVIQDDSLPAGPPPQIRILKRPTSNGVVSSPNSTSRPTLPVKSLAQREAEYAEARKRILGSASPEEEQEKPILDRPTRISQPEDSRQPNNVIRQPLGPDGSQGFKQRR
UniProt Q6IQ22: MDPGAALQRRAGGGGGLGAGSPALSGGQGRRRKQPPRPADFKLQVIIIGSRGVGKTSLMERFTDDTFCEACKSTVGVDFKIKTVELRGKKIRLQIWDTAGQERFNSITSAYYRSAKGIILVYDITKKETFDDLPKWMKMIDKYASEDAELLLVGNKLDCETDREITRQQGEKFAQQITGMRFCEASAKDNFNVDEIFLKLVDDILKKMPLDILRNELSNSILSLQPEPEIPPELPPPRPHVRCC
UniProt Q7Z591: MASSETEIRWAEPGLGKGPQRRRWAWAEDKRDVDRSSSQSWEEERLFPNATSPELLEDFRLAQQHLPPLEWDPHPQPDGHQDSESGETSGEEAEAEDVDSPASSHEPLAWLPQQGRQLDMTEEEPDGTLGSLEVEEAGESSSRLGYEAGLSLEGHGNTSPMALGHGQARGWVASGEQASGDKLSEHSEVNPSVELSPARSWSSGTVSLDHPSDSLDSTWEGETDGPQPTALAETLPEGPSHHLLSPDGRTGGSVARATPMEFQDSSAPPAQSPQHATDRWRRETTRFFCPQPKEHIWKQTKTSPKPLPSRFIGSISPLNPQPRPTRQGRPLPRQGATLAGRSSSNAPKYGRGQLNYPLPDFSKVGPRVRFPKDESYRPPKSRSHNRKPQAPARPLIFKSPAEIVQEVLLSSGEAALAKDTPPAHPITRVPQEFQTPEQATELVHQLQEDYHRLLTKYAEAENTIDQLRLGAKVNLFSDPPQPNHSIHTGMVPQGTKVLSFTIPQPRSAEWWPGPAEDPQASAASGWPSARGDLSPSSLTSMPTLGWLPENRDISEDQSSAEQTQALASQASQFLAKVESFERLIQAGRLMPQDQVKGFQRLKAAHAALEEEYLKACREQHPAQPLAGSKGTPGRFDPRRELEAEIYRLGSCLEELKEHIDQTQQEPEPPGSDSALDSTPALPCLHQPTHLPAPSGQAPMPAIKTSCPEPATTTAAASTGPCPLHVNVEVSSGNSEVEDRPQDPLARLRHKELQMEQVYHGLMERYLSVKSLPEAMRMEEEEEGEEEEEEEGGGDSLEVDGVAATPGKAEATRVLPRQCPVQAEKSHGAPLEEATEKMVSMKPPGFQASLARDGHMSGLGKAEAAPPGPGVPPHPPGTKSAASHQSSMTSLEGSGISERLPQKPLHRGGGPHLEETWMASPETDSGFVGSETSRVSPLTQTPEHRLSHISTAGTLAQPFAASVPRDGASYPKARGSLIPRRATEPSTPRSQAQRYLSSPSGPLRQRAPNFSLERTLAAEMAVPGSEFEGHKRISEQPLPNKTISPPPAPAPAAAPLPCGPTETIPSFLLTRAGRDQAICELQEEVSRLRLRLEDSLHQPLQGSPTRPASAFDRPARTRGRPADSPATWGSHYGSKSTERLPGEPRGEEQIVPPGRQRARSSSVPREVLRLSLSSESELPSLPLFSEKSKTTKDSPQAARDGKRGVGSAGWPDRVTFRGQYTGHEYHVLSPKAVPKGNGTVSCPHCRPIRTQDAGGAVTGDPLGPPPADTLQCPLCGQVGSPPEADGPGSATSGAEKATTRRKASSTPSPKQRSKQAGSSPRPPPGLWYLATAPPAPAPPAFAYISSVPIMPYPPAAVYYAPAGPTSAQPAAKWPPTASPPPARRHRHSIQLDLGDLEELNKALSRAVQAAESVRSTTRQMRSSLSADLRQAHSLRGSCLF
UniProt Q7Z7A4: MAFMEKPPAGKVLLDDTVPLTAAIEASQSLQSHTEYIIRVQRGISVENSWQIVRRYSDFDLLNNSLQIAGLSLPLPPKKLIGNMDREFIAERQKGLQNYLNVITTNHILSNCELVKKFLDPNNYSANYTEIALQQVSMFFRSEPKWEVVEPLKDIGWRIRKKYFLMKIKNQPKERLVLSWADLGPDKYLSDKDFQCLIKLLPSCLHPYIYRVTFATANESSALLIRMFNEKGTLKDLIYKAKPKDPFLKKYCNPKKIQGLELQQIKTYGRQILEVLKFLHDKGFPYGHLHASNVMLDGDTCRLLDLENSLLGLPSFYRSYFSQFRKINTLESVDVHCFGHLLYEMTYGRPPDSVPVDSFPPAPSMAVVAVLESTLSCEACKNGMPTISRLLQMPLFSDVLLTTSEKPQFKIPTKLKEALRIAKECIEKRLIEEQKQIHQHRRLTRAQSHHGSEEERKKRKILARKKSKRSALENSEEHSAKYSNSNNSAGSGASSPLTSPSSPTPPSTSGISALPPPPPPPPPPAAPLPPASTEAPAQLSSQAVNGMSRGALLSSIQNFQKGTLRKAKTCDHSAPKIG
UniProt Q7L592: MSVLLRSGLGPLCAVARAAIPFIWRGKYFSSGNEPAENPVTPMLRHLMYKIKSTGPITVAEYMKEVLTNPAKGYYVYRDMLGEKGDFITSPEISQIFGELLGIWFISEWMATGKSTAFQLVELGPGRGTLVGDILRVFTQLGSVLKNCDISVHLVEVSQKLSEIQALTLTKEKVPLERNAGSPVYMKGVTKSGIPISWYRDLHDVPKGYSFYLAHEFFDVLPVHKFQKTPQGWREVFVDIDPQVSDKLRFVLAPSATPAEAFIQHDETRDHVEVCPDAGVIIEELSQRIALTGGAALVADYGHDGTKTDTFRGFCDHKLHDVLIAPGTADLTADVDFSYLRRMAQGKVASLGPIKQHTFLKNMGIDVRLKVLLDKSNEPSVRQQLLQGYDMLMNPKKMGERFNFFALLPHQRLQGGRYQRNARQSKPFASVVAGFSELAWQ
UniProt Q7Z2E3: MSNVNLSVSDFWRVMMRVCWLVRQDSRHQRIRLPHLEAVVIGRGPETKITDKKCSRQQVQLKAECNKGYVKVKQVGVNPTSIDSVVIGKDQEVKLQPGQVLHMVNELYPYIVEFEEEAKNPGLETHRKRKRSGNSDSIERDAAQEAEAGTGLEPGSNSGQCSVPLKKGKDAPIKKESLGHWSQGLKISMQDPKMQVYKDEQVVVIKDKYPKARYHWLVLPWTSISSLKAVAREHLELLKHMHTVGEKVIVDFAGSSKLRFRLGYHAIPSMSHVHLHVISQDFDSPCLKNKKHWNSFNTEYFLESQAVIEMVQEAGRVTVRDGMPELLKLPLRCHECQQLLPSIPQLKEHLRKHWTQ

± gives the standard deviation of the averaged measurements. This is one part of the list.

For the target UniProt Q5XPI4 and related entries, the NP40-soluble protein abundance by setting is: (concentration: 0.1mM) 1.07 ± 0.071; (concentration: 0.5mM) 1.09 ± 0.15; (concentration: 1mM) 1.04 ± 0.11; (concentration: 2mM) 1.08 ± 0.087; (concentration: 4mM) 0.982 ± 0.1; (concentration: 6mM) 1.01 ± 0.082. Besides, the NP40-soluble protein abundance (concentration: 8mM) turned out to be 0.973 ± 0.11 and the NP40-soluble protein abundance (concentration: 10mM) worked out at 0.989 ± 0.12.
On to MEPCE (UniProt Q7L2J0), for which the NP40-soluble protein abundance (concentration: 0.1mM) amounted to 1.02 ± 0.035; the NP40-soluble protein abundance (concentration: 0.5mM) amounted to 1.09 ± 0.065; the NP40-soluble protein abundance (concentration: 1mM) was 1.04 ± 0.019; the NP40-soluble protein abundance (concentration: 2mM) is 1.07 ± 0.031; the NP40-soluble protein abundance (concentration: 4mM) worked out at 1.06 ± 0.03; the NP40-soluble protein abundance (concentration: 6mM) was 1.17 ± 0.057. Also, the NP40-soluble protein abundance (concentration: 8mM) was found to be 1.2 ± 0.081 and the NP40-soluble protein abundance (concentration: 10mM) is 1.27 ± 0.095.
Consider UniProt Q7Z333 and related entries, for which the NP40-soluble protein abundance turned out to be 0.993 ± 0.14 (concentration: 0.1mM); 1.08 ± 0.12 (concentration: 0.5mM); 1.15 ± 0.35 (concentration: 1mM); 0.959 ± 0.17 (concentration: 2mM); 1 ± 0.29 (concentration: 4mM); 1.03 ± 0.21 (concentration: 6mM). The NP40-soluble protein abundance worked out at 1.09 ± 0.38 (concentration: 8mM) and 0.955 ± 0.23 (concentration: 10mM).
For the target SLC30A9 (UniProt Q6PML9), the NP40-soluble protein abundance was found to be 1.1 ± 0.058 (concentration: 0.1mM); 1 ± 0.054 (concentration: 0.5mM); 0.987 ± 0.06 (concentration: 1mM); 0.997 ± 0.12 (concentration: 2mM); 0.997 ± 0.067 (concentration: 4mM); 1 ± 0.11 (concentration: 6mM). For the same target, the NP40-soluble protein abundance is, setting by setting: (concentration: 8mM) 1.05 ± 0.16; (concentration: 10mM) 0.972 ± 0.053.
For the target FDX2 (UniProt Q6P4F2), the NP40-soluble protein abundance runs as follows: (concentration: 0.1mM) 1.03 ± 0.15; (concentration: 0.5mM) 0.986 ± 0.14; (concentration: 1mM) 0.952 ± 0.059; (concentration: 2mM) 0.929 ± 0.094; (concentration: 4mM) 0.972 ± 0.18; (concentration: 6mM) 0.932 ± 0.11. Also, the NP40-soluble protein abundance (concentration: 8mM) turned out to be 1.03 ± 0.16 and the NP40-soluble protein abundance (concentration: 10mM) was determined as 0.987 ± 0.12.
As to UniProt Q7Z392 and related entries, the NP40-soluble protein abundance stood at 1.13 ± 0.18 (concentration: 0.1mM); 1.14 ± 0.23 (concentration: 0.5mM); 1.11 ± 0.14 (concentration: 1mM); 1.12 ± 0.21 (concentration: 2mM); 1.11 ± 0.15 (concentration: 4mM); 1.05 ± 0.19 (concentration: 6mM). Also, the NP40-soluble protein abundance worked out at 1.09 ± 0.15 (concentration: 8mM) and 1.02 ± 0.16 (concentration: 10mM).
For UniProt Q7Z422 and related entries, the NP40-soluble protein abundance is, setting by setting: (concentration: 0.1mM) 0.923 ± 0.024; (concentration: 0.5mM) 0.989 ± 0.087; (concentration: 1mM) 0.984 ± 0.071; (concentration: 2mM) 0.98 ± 0.12; (concentration: 4mM) 0.967 ± 0.12; (concentration: 6mM) 0.993 ± 0.12. Also, the NP40-soluble protein abundance was found to be 1.04 ± 0.11 (concentration: 8mM) and 1.13 ± 0.14 (concentration: 10mM).
Consider RAB12 (UniProt Q6IQ22), for which the NP40-soluble protein abundance reads like this: (concentration: 0.1mM) 1.04 ± 0.09; (concentration: 0.5mM) 0.983 ± 0.09; (concentration: 1mM) 0.938 ± 0.12; (concentration: 2mM) 0.968 ± 0.068; (concentration: 4mM) 0.924 ± 0.15; (concentration: 6mM) 0.919 ± 0.043. Further, the NP40-soluble protein abundance runs as follows: (concentration: 8mM) 0.894 ± 0.087; (concentration: 10mM) 0.888 ± 0.12.
Turning to UniProt Q7Z591 and related entries, the NP40-soluble protein abundance (concentration: 0.1mM) was 1.02 ± 0.092; the NP40-soluble protein abundance (concentration: 0.5mM) turned out to be 0.915 ± 0.048; the NP40-soluble protein abundance (concentration: 1mM) stood at 1.07 ± 0.048; the NP40-soluble protein abundance (concentration: 2mM) came to 1.11 ± 0.067; the NP40-soluble protein abundance (concentration: 4mM) worked out at 1.13 ± 0.11; the NP40-soluble protein abundance (concentration: 6mM) amounted to 1.15 ± 0.047. Also, the NP40-soluble protein abundance is, setting by setting: (concentration: 8mM) 1.19 ± 0.16; (concentration: 10mM) 1.21 ± 0.14.
Turning to TTC37 (UniProt Q6PGP7), the NP40-soluble protein abundance reads like this: (concentration: 0.1mM) 0.91 ± 0.12; (concentration: 0.5mM) 0.973 ± 0.068; (concentration: 1mM) 0.971 ± 0.1; (concentration: 2mM) 0.985 ± 0.15; (concentration: 4mM) 0.955 ± 0.12; (concentration: 6mM) 0.975 ± 0.13. Moreover, the NP40-soluble protein abundance (concentration: 8mM) amounted to 0.949 ± 0.17 and the NP40-soluble protein abundance (concentration: 10mM) was found to be 0.981 ± 0.025.
In the case of UniProt Q7Z7A4 and related entries, the NP40-soluble protein abundance (concentration: 0.1mM) stood at 1.06 ± 0.096; the NP40-soluble protein abundance (concentration: 0.5mM) worked out at 1.04 ± 0.043; the NP40-soluble protein abundance (concentration: 1mM) came out at 1.01 ± 0.11; the NP40-soluble protein abundance (concentration: 2mM) came out at 0.94 ± 0.11; the NP40-soluble protein abundance (concentration: 4mM) was determined as 1.05 ± 0.12; the NP40-soluble protein abundance (concentration: 6mM) was determined as 0.881 ± 0.1. In addition, the NP40-soluble protein abundance (concentration: 8mM) was determined as 0.967 ± 0.061 and the NP40-soluble protein abundance (concentration: 10mM) came to 0.866 ± 0.026.
For the target UniProt Q7L592, the NP40-soluble protein abundance was determined as 1.04 ± 0.043 (concentration: 0.1mM); 0.992 ± 0.05 (concentration: 0.5mM); 0.969 ± 0.071 (concentration: 1mM); 0.867 ± 0.025 (concentration: 2mM); 0.923 ± 0.062 (concentration: 4mM); 0.942 ± 0.088 (concentration: 6mM). The NP40-soluble protein abundance (concentration: 8mM) was 0.86 ± 0.078 and the NP40-soluble protein abundance (concentration: 10mM) stood at 0.855 ± 0.095.
For UniProt Q7Z2E3 and related entries, the NP40-soluble protein abundance is, setting by setting: (concentration: 0.1mM) 1.06 ± 0.074; (concentration: 0.5mM) 1.05 ± 0.08; (concentration: 1mM) 1.02 ± 0.067; (concentration: 2mM) 1.13 ± 0.089; (concentration: 4mM) 1.17 ± 0.079; (concentration: 6mM) 1.22 ± 0.19. Besides, the NP40-soluble protein abundance by setting is: (concentration: 8mM) 1.21 ± 0.11; (concentration: 10mM) 1.24 ± 0.094.
Turning to CTR9 (UniProt Q6PD62), the NP40-soluble protein abundance came out at 1.07 ± 0.063 (concentration: 0.1mM); 1.09 ± 0.1 (concentration: 0.5mM); 0.982 ± 0.077 (concentration: 1mM); 0.996 ± 0.12 (concentration: 2mM); 0.971 ± 0.088 (concentration: 4mM); 0.943 ± 0.12 (concentration: 6mM). For the same target, the NP40-soluble protein abundance reads like this: (concentration: 8mM) 0.88 ± 0.072; (concentration: 10mM) 0.785 ± 0.051.
